Patent publication US20100092481A1
No constants are given. Whether binding was seen depends on the method and setting. Some binding calls cover weakened binding; strength is not graded here.

Sequences of proteins named here, by UniProt entry; tags and fusion partners are left off. Residues count along the entry.
UniProt P06473, residues 32-906: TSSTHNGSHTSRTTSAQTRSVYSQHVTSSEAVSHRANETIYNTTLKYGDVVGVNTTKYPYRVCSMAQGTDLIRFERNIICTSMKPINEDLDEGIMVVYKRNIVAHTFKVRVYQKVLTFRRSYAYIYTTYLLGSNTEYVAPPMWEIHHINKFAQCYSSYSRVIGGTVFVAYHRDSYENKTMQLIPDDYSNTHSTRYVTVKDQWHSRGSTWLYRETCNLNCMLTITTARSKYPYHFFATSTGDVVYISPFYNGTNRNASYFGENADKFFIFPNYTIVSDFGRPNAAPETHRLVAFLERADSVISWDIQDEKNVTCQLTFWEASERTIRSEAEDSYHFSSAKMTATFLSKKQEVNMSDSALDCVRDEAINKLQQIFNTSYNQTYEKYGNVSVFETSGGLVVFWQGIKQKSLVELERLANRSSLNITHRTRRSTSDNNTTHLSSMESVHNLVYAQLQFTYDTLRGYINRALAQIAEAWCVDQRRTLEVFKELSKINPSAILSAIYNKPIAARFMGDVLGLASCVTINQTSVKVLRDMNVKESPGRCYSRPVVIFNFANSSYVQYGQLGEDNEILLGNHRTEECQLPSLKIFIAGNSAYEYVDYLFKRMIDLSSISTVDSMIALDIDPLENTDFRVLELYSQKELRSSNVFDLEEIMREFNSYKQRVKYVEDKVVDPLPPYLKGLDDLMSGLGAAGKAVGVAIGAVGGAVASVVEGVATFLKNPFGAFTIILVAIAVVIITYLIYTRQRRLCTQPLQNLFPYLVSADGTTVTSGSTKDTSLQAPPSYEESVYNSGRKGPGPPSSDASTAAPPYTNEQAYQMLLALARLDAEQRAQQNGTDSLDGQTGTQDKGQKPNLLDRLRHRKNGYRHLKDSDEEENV

T1: hCMV gM and gN co-expressed in HEK293T cells (human cytomegalovirus) (UniProt P16733)
T1 sequence 1: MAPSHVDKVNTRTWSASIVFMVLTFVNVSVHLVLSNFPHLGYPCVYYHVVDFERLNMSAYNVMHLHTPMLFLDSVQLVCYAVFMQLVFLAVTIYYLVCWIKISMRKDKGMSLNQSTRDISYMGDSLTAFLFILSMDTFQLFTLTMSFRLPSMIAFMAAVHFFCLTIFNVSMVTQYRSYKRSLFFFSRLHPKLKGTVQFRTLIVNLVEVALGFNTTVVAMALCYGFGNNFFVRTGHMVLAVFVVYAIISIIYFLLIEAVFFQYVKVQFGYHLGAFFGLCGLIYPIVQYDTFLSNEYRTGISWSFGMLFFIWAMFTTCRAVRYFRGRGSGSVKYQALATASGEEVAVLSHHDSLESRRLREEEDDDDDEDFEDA
T1 sequence 2: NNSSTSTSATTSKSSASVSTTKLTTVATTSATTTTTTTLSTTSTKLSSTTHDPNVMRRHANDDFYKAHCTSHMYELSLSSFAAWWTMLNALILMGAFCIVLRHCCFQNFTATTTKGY


Key:
[1] = biological target: hCMV gB protein, full length, expressed in HEK293T cells (human cytomegalovirus) (UniProt P06473); assay: summary of staining and cross-competition
[2] = biological target: hCMV gB protein, full length, expressed in HEK293T cells (human cytomegalovirus) (UniProt P06473); assay: staining of transfected HEK293T
[3] = biological target: T1, hCMV gM and gN co-expressed in HEK293T cells (human cytomegalovirus); assay: staining of transfected HEK293T

Binder	binding [1]	binding [2]	binding [3]
7H3 (antibody, V domains shown) VH: QVQLVQSGAEVKNPGASVKVSCKASGYTFTDYYIHWVRQAPGQGLEWMGWFNPNSGGTNFVQNFQGRVTMTRDTSISTAYMELSRLRSDDTAMYYCAKDSAKTASAYYGLNFFYYGMDVWGQGTTVTVSS VL: QSVLSQPPSASGTPGQRVTISCSGSSSNIGKNYVYWYQQVPGTAPKLLMFKNNQRPSGVPDRFSGSKSGTSASLAISGLRSEDEADYYCSAWDGSLSRPLFGGGTKVTVL	binds	binds	
10C6 (antibody, V domains shown) VH: AVQLVESGGGLAQPGRSLRLSCKVSGFSFSNFEMNWVRQAPGKGLEWIAYIDFTGSTIYYSDSVKGRFTISRDTARNSLYLQMNKLRVEDTAVYYCVRDAGRWGTSWYYFDYWGQGTLVTVSS VL: QSVLTQPPSVSGAPGQRVTISCTGLSSNIGAGYDIHWYQQIPGKAPKLLIYGNNNRPSGVPDRFSGSKSGTSVSLAITGLQAEDEADYYCQSYDSSLNGWVFGGGTRLTVL	binds	binds	
5F1 (antibody, V domains shown) VH: AVQLVESGGGLAQPGRSLRLSCKVSGFTFSSYEMNWVRQAPGKGLEWIAYIDFTGSTIYYADSVKGRFTISRDTARNSLYLQMNKLRVEDTAVYYCVRDAGRWGTSWYYFDYWGQGTLVTVSS VL: QSVLTQPPSVSGAPGQRVTISCTGLSSNIGAGYDIHWYQQIPGKAPKLLIYGNNNRPSGVPDRFSGSKSGTSVSLAITGLQAEDEADYYCQSYDSSLNGWVFGGGTRLTVL	binds	binds	
6B4 (antibody, V domains shown) VH: QVQLVESGGGVVQPGRSLRLSCAASGFRFNEFNMHWVRQAPGKGLEWVAVISIDGRHKYNADSVEGRFTISRDNSRNTLYLQMNSLRVEDTALYYCVTDGKAVDGFSGILEFWGQGTPVTVST VL: EIVLTQSPATLSLSPGERATLSCWASQSVGGYLAWYQQKPGQAPRLLIYDASIRATGIPARFSGSGSGTHFTLTINSLEPEDFAVYYCQQRNNWPPLTFGGGTKVEIK	binds	binds	
4H9 (antibody, V domains shown) VH: AVQLVESGGGLVRPGGSLRLSCAASGFTFSSHEMHWVRQAPGKGLEWLSYIDFTGSIIYYADSVRGRFTISRDNTKKSLFLQMNSLRDEDTALYYCARDGGRWGTSWYYFDYWGQGVLVTVSS VL: QSVLTQPPSVSGAPGQRVTITCTGSSSNFGAGYDGHWYQQLPGTAPKLLIYGSNRPSGVPDRFSGSKSGTSVSLAITGLQADDEADYYCQSYDSSLSAWVFGGGTKLTVL	binds	binds	
2B11 (antibody, V domains shown) VH: AVRLVESGGGLAQPGRSLRLSCQVSGFTFGSYEMNWVRQAPGKGLEWIAYIDFTGSTIYYADSVKGRFTISRNTARNSLYLQMNSLRVEDTAVYYCVRDAGRWGTSWYYFDYWGQGTRVTVSP VL: QSVLTQPPSVSGAPGQRVTISCTGISSNIGAGYDIHWYQQIPGKAPKLLVYGNNNRPSGVPDRFSGSKSGTSVSLAITGLQVEDEADYYCQSYDNSLNGWVFGGGTRLTVL	binds	binds	
6L3 (antibody, V domains shown) VH: EVRLEESGGGLVQPGGSLRLSCAASGFTVSTTYMAWVRQAPGKGLEWVSLIHTGGIFGVGGTSYADSVKGRFTISRDTSKNTVSLQMSSLRVEDTAIYFCAREHRGTIDAFDAWGQGTVVIVSS VL: DIHMTQSPSSLSASVGDRVTITCRASQNIRNYLNWYQHKPGKAPKLLIYTTSRLQSGVPSRFSGSGSGTDFTLTVNSLQPEDFASYYCQQSYDGWTFGQGTKVEMK			binds
